For one molecule, binding results are on record in PMC12607858, “GNAT family Pat2 is required for long-term survival on glycerol and catalyzes lysine acetylation of glycerol kinase in hypersaline-adapted archaea” (mBio, 2025).

No constants are given. Whether binding was seen depends on the method and setting. Where a sequence is shown, tags or fusion partners need not be part of it.

The target of this assay is HvPat2-SII (Haloferax volcanii Pat2, HVO_1821, with a C-terminal StrepII tag) (Haloferax volcanii) (UniProt D4GSS9). Briefly: SEC; Superdex 75 Increase 10/300 GL, 50 mM HEPES pH 7.5, 2 M NaCl, 1 mM DTT, 0.3 mL/min, after StrepTactin purification; both purified. In general terms: SEC sorts molecules by how far they enter the pores of the column.

B1: HvPat2-SII (Haloferax volcanii Pat2, HVO_1821, with a C-terminal StrepII tag) (enzyme, UniProt D4GSS9 1-184)
chain: MSDRTFSDAVADPYDAPPLSFTDGEDRTIEVRAHDGSDEELEALVEMYDAFDPSDRAQGIPPGREDRIRDWLENILDEDCLNVIAWDGDEVAGHATLVPDGDAYELAIFVHQTYQRAGIGTRLIKALLGYGRVSGVEKVWLTVERWNRAAVGLYQTVGFETSDAESFELEMTIRLAEPPDDEGG
In the case of B1, the binding result is given as “no binding”.
